{
  "source": "the supplement of paper PMC3334620",
  "note": "Over roughly 33,000 sequences, “E-score (-0.5 to 0.5)” has its median near -0.015; the highest 2% begin near 0.3. The list shows a part of the results.",
  "data": [
    {"target": "T1, Abf1 (UniProt P14164)", "T1 sequence": "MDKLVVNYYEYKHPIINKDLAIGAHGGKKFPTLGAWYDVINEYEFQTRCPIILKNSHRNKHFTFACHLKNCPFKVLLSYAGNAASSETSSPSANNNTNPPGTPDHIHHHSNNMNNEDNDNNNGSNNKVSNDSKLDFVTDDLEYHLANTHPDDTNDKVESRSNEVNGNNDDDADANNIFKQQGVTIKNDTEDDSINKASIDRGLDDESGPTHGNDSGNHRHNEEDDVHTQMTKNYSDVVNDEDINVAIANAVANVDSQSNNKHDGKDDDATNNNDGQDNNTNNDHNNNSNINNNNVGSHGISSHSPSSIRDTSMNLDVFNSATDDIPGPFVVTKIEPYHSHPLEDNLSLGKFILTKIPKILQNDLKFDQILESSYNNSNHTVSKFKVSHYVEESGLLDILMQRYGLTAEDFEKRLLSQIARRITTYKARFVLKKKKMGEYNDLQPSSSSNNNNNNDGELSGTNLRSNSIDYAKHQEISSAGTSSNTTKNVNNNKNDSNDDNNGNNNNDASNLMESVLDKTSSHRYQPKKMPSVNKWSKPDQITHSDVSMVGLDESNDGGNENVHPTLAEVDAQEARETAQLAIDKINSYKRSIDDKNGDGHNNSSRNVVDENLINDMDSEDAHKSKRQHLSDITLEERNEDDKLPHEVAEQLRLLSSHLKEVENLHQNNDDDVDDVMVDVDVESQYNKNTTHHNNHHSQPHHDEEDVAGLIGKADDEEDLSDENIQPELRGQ", "test": "PBM E-score (8-mer binding enrichment) (E-score (-0.5 to 0.5)); higher = stronger / more preferred TF binding", "conditions": "protein concentration: 200 nM; construct: GST-full length", "outline": "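Yeast transcription factors carrying a GST tag, as full-length proteins or DNA-binding domains, were produced by PURExpress in vitro transcription/translation. About 100-200 nM protein was applied to universal all-10-mer Agilent arrays, double-stranded by primer extension on fresh or once-stripped slides. Bound protein was detected with fluorescent anti-GST, and scans were normalised with masliner. The Universal PBM Analysis Suite gave each ungapped eight-base word, pooled with its reverse complement, an E-score, a modified Wilcoxon-Mann-Whitney statistic.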", "values": [
      {"sequence": "TGTTAAAA", "PBM E-score": 0.211},
      {"sequence": "CCTGAAGC", "PBM E-score": -0.0841},
      {"sequence": "AAAAAGGA", "PBM E-score": -0.189},
      {"sequence": "ATATTAAA", "PBM E-score": 0.33},
      {"sequence": "CTTTACGA", "PBM E-score": 0.119},
      {"sequence": "CGGTACCA", "PBM E-score": -0.0203},
      {"sequence": "CGAAGTAG", "PBM E-score": 0.0374},
      {"sequence": "AAGTCCTG", "PBM E-score": -0.265},
      {"sequence": "TAAGGTGA", "PBM E-score": 0.192},
      {"sequence": "ACGCAGGC", "PBM E-score": -0.195},
      {"sequence": "CAGTAAAC", "PBM E-score": -0.0465},
      {"sequence": "ACGTTAGC", "PBM E-score": 0.176},
      {"sequence": "ATGTACTG", "PBM E-score": -0.022},
      {"sequence": "CCTAGGCA", "PBM E-score": -0.0159},
      {"sequence": "GAGGCCTC", "PBM E-score": -0.0245},
      {"sequence": "ACAACGAC", "PBM E-score": 0.0991},
      {"sequence": "ATTAATAC", "PBM E-score": 0.141},
      {"sequence": "ACGGCTCC", "PBM E-score": 0.18},
      {"sequence": "CTCAGGTA", "PBM E-score": -0.16},
      {"sequence": "ACCTGGAC", "PBM E-score": -0.144},
      {"sequence": "AGTAAAGA", "PBM E-score": -0.163},
      {"sequence": "AATTTATC", "PBM E-score": 0.314},
      {"sequence": "AAAACTAT", "PBM E-score": 0.0284},
      {"sequence": "CAAGACAA", "PBM E-score": 0.146},
      {"sequence": "CTAGATAC", "PBM E-score": 0.176},
      {"sequence": "AATCGGAG", "PBM E-score": -0.0257},
      {"sequence": "AGCCACCG", "PBM E-score": -0.225},
      {"sequence": "CTAGGTCC", "PBM E-score": -0.0604},
      {"sequence": "GGGTGCCA", "PBM E-score": -0.067},
      {"sequence": "TGCTCCCA", "PBM E-score": -0.0433},
      {"sequence": "AATCTTTG", "PBM E-score": 0.0379},
      {"sequence": "GCAGCTGA", "PBM E-score": -0.00371},
      {"sequence": "CTACAAAA", "PBM E-score": 0.139},
      {"sequence": "TTGTACAA", "PBM E-score": -0.0801},
      {"sequence": "AGGTAAAA", "PBM E-score": -0.026},
      {"sequence": "GCGACAGA", "PBM E-score": -0.0736},
      {"sequence": "GAACACCC", "PBM E-score": -0.278},
      {"sequence": "ATGGTTTG", "PBM E-score": -0.0664},
      {"sequence": "GAAGTCGA", "PBM E-score": 0.103},
      {"sequence": "GATTCCCC", "PBM E-score": -0.183},
      {"sequence": "AACTGTTG", "PBM E-score": -0.0805},
      {"sequence": "GCTCTCAA", "PBM E-score": -0.0479},
      {"sequence": "AGCCAAGC", "PBM E-score": -0.188},
      {"sequence": "ATAGCAGA", "PBM E-score": -0.112},
      {"sequence": "AAGCCGCA", "PBM E-score": -0.197},
      {"sequence": "CAAAACAG", "PBM E-score": -0.0367},
      {"sequence": "CTGGTACA", "PBM E-score": 0.081},
      {"sequence": "GGGGACTA", "PBM E-score": -0.00253},
      {"sequence": "GAAAGGCC", "PBM E-score": 0.145},
      {"sequence": "GGGAACCA", "PBM E-score": -0.249},
      {"sequence": "ACACCCGG", "PBM E-score": -0.145},
      {"sequence": "AGTTGCAT", "PBM E-score": 0.011},
      {"sequence": "ACATTTCA", "PBM E-score": -0.0122},
      {"sequence": "ATAGTTCA", "PBM E-score": 0.0426},
      {"sequence": "AATCCCGA", "PBM E-score": -0.0401},
      {"sequence": "ATAATGCA", "PBM E-score": -0.0446},
      {"sequence": "GCCGGAAC", "PBM E-score": -0.143},
      {"sequence": "CTTGCTCA", "PBM E-score": -0.272},
      {"sequence": "ACATACAT", "PBM E-score": 0.086},
      {"sequence": "CGCAGCAC", "PBM E-score": 0.089},
      {"sequence": "AGAGCATA", "PBM E-score": -0.0347},
      {"sequence": "AATATGGG", "PBM E-score": -0.131},
      {"sequence": "CGTGGAAA", "PBM E-score": 0.258},
      {"sequence": "ACAGCAAA", "PBM E-score": 0.00185},
      {"sequence": "GCTCGGAC", "PBM E-score": -0.176},
      {"sequence": "ATTCTTGC", "PBM E-score": -0.0146},
      {"sequence": "CGTCTGCC", "PBM E-score": 0.118},
      {"sequence": "CTGGAATA", "PBM E-score": -0.0462},
      {"sequence": "GATATATC", "PBM E-score": 0.332},
      {"sequence": "ACTGAGTA", "PBM E-score": -0.144},
      {"sequence": "GTCCACAC", "PBM E-score": 0.0601},
      {"sequence": "AACTACGC", "PBM E-score": 0.0207},
      {"sequence": "AAGACCAG", "PBM E-score": -0.24},
      {"sequence": "ACGGCGCG", "PBM E-score": 0.324},
      {"sequence": "ATAGCCGC", "PBM E-score": -0.0864},
      {"sequence": "CGTCGACC", "PBM E-score": 0.0465},
      {"sequence": "ACTCCATA", "PBM E-score": -0.0839},
      {"sequence": "CACCGCAG", "PBM E-score": -0.243},
      {"sequence": "GTAGCAAC", "PBM E-score": 0.0376},
      {"sequence": "CACGTTGG", "PBM E-score": 0.00181},
      {"sequence": "CGTTTAGA", "PBM E-score": 0.152},
      {"sequence": "GAGCGCCA", "PBM E-score": -0.0792},
      {"sequence": "CTTACACA", "PBM E-score": -0.224},
      {"sequence": "GTCACCCA", "PBM E-score": 0.0895},
      {"sequence": "AACAGGCA", "PBM E-score": -0.00595},
      {"sequence": "ACGATCTC", "PBM E-score": 0.252},
      {"sequence": "ATATCGAA", "PBM E-score": 0.107},
      {"sequence": "AAGAAAAC", "PBM E-score": -0.1},
      {"sequence": "ATACGGAC", "PBM E-score": 0.142},
      {"sequence": "CTATGTCC", "PBM E-score": -0.022},
      {"sequence": "CCTGGTTC", "PBM E-score": -0.207},
      {"sequence": "AAGGTTCT", "PBM E-score": -0.189},
      {"sequence": "CGATTTTA", "PBM E-score": 0.148},
      {"sequence": "CCGTGAAC", "PBM E-score": 0.131}
    ]}
  ]
}
